Data published in the supplement of paper PMC4604168 (melanoma cell lines).
This is one part of the list. Repeats are few or missing, and single values can be far off.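 Cells were imaged in 1,536-well plates, and nuclei stained with an antibody against cleaved PARP were counted against all DNA-stained nuclei to give the apoptosis fraction. Screening doses were chosen to leave most cells alive, and resting and induced cleaved-PARP levels differ strongly between cell lines.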

Legend:
Test in all cases: cleaved PARP positive nuclei fraction relative to DMSO control; melanoma cells; higher = more apoptosis
Details in all cases: library dose: low library concentration; 72 h
MZ2-MEL = test system: MZ2-MEL
MeWo = test system: MeWo
RPMI7951 = test system: RPMI7951
RVH-421 = test system: RVH-421
SkMel28 = test system: SkMel28
SkMel30 = test system: SkMel30
SkMel5 = test system: SkMel5
UACC257 = test system: UACC257
UACC62 = test system: UACC62
WM115 = test system: WM115
WM1716 = test system: WM1716
WM1745 = test system: WM1745
WM3526 = test system: WM3526
WM3619 = test system: WM3619
WM451Lu = test system: WM451Lu

| Compound | cleaved PARP positive nuclei fraction (MZ2-MEL) [%] | cleaved PARP positive nuclei fraction (MeWo) [%] | cleaved PARP positive nuclei fraction (RPMI7951) [%] | cleaved PARP positive nuclei fraction (RVH-421) [%] | cleaved PARP positive nuclei fraction (SkMel28) [%] | cleaved PARP positive nuclei fraction (SkMel30) [%] | cleaved PARP positive nuclei fraction (SkMel5) [%] | cleaved PARP positive nuclei fraction (UACC257) [%] | cleaved PARP positive nuclei fraction (UACC62) [%] | cleaved PARP positive nuclei fraction (WM115) [%] | cleaved PARP positive nuclei fraction (WM1716) [%] | cleaved PARP positive nuclei fraction (WM1745) [%] | cleaved PARP positive nuclei fraction (WM3526) [%] | cleaved PARP positive nuclei fraction (WM3619) [%] | cleaved PARP positive nuclei fraction (WM451Lu) [%] |
| --- | --- | --- | --- | --- | --- | --- | --- | --- | --- | --- | --- | --- | --- | --- | --- |
| Cn1cncc1[C@@](N)(c1ccc(Cl)cc1)c1ccc2c(c1)c(-c1cccc(Cl)c1)cc(=O)n2C [tipifarnib] + CCN(CC)CCCCNc1ncc2cc(-c3cc(OC)cc(OC)c3)c(NC(=O)NC(C)(C)C)nc2n1 [PD173074] (first compound 0.01 µM, partner dose 0.1 µM) | 78 | 106 | 43.3 | 123 | 125 | 51.6 | 22.5 | 190 | 85 | 57.7 | 152 | 101 | 73.5 | 168 | 650 |
| COCC[n+]1c2c(n(Cc3cnccn3)c1C)C(=O)c1ccccc1C2=O + Cc1cc([N+](=O)[O-])ccc1NS(=O)(=O)c1cc(Cl)ccc1Cl [FH535] (first compound 0.0004 µM, partner dose 1 µM) | 133 | 80.1 | 86.5 | 106 | 80.1 | 26.3 | 73.1 | 83.8 | 94.8 | 133 | 80.7 | 105 | 76 | 85.1 | 69.4 |
| CO[C@@H]1[C@H](N(C)C(=O)c2ccccc2)C[C@H]2O[C@]1(C)n1c3ccccc3c3c4c(c5c6ccccc6n2c5c31)C(=O)NC4 [Midostaurin] + O=c1cc(-c2cccc3c2Sc2ccccc2S3)oc(N2CCOCC2)c1 [KU55933] (first compound 0.08 µM, partner dose 1 µM) | 157 | 234 | 207 | 185 | 61.7 | 91.1 | 62.6 | 44.6 | 42.1 | 79.7 | 159 | 158 | 69.5 | 126 | 161 |
| COCC[n+]1c2c(n(Cc3cnccn3)c1C)C(=O)c1ccccc1C2=O + N#Cc1c(O)c2c(-c3ccc(-c4ccccc4O)cc3)csc2[nH]c1=O [A769662] (first compound 0.0004 µM, partner dose 2 µM) | 102 | 105 | 41.8 | 21.6 | 96.8 | 55.7 | 69.7 | 48.9 | 251 | 150 | 104 | 100 | 74.1 | 67.6 | 186 |
| Cn1c(Nc2ccc(C(F)(F)F)cc2)nc2cc(Oc3ccnc(-c4ncc(C(F)(F)F)[nH]4)c3)ccc21 + CC(C)CCN1c2nc(Nc3cc(F)c(O)c(F)c3)ncc2N(C)C(=O)C1C [BID1870] (first compound 0.08 µM, partner dose 0.2 µM) | 131 | 157 | 142 | 135 | 315 | 96.2 | 80.3 | 515 | 353 | 595 | 124 | 321 | 137 | 301 | 45.4 |
| O=C(Nc1cccc(Cl)c1)Nc1ncc(CCNc2ncnc3ccsc23)s1 + O=C1NC(=O)/C(=C/c2ccc(-c3ccc(F)cc3O)o2)S1 [AS252424] (first compound 0.0008 µM, partner dose 1 µM) | 99.7 | 156 | 323 | 79.1 | 125 | 18.9 | 53 | 186 | 76.5 | 62 | 63.1 | 77.4 | 81.2 | 87.1 | 53.3 |
| CC1(C)NC(=O)N(c2ccc([N+](=O)[O-])c(C(F)(F)F)c2)C1=O [nilutamide] + COC(=O)c1sccc1S(=O)(=O)Nc1ccc(Nc2ccccc2)cc1OC [GSK0660] (first compound 1 µM, partner dose 1 µM) | 69.3 | 289 | 64.7 | 37 | 146 | 211 | 54 | 282 | 164 | 141 | 126 | 102 | 153 | 75.1 | 69.8 |
| NC(=O)Nc1cc(-c2cccc(F)c2)sc1C(=O)N[C@H]1CCCNC1 + Cn1cc(/C=C2\C(=O)Nc3cccnc32)c2ccccc21 [GW441756] (first compound 0.02 µM, partner dose 0.4 µM) | 56.8 | 156 | 98.7 | 41.9 | 170 | 1440 | 75.5 | 41.5 | 65.7 | 170 | 58 | 118 | 92.2 | 217 | 63.7 |
| NC(=O)Nc1cc(-c2cccc(F)c2)sc1C(=O)N[C@H]1CCCNC1 + Oc1nc(-c2ccc(C(F)(F)F)cc2)nc2c1CSCC2 [XAV939] (first compound 0.02 µM, partner dose 2 µM) | 121 | 207 | 93.2 | 27.5 | 91.9 | 198 | 144 | 49.7 | 393 | 123 | 109 | 192 | 367 | 184 | 87.5 |
| Cn1c(Nc2ccc(C(F)(F)F)cc2)nc2cc(Oc3ccnc(-c4ncc(C(F)(F)F)[nH]4)c3)ccc21 + Oc1cc(-c2nc(-c3ccccc3)[nH]c2-c2ccncc2)ccc1Cl [L779450] (first compound 0.08 µM, partner dose 0.2 µM) | 95 | 94.5 | 141 | 179 | 389 | 94.6 | 106 | 1180 | 979 | 278 | 135 | 198 | 162 | 134 | 242 |
